# From the supplement of paper PMC8728848
# The list shows a part of the results.
# B1: Loc1 (Escherichia coli) (protein)
# chain: APCALTNVGEQRGTYILKPLSMKGNLTAEKIENTGNIIECTDLQETTNAIKVHFLTQNALKFKVGSRHYIINFPFEYDGKKIELPGKSSYNLEEMLSAINFTIPYSIASVSDSSNTADIFPGTPFPLLFEIEVSSCTGNNTNCNSVRFNYNLNTILQVNLMTHHHHHH
# Assays:
# Experiment in all cases: glycan array binding signal (z-score within array); higher = stronger binding
# Conditions in all cases: glycan notation: IUPAC condensed, linker removed
# [1] = target: Gal(b1-3)GlcNAc(b1-2)Man(a1-3)[Gal(b1-3)GlcNAc(b1-2)Man(a1-6)]Man(b1-4)GlcNAc(b1-4)[Fuc(a1-6)]GlcNAc
# Procedure, shortened: (§1)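 Arrays were curated from the Consortium for Functional Glycomics database, 3228 in total, and kept only where the protein sequence was available. Binding is expressed as a within-array Z-score. This score was averaged across arrays of the same protein sequence at different concentrations or buffers and across linkers, and negative values can be read as non-binding.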
# [2] = target: Gal(b1-3)GlcNAc(b1-2)Man(a1-3)[GlcNAc(b1-4)][Gal(b1-3)GlcNAc(b1-2)Man(a1-6)]Man(b1-4)GlcNAc(b1-4)GlcNAc
# Procedure, shortened: as §1
# [3] = target: Gal(b1-3)GlcNAc(b1-2)[Gal(b1-3)GlcNAc(b1-6)]Man(a1-6)[Gal(b1-3)GlcNAc(b1-2)Man(a1-3)]Man(b1-4)GlcNAc(b1-4)GlcNAc
# Procedure, shortened: as §1
# [4] = target: Gal(b1-3)GlcNAc(b1-3)Gal(b1-3)GlcNAc
# Procedure, shortened: as §1
# [5] = target: Gal(b1-3)GlcNAc(b1-3)Gal(b1-4)Glc
# Procedure, shortened: as §1
# [6] = target: Gal(b1-3)GlcNAc(b1-3)Gal(b1-4)GlcNAc
# Procedure, shortened: as §1
# [7] = target: Gal(b1-3)GlcNAc(b1-3)Gal(b1-4)GlcNAc(b1-2)Man(a1-3)[Gal(b1-3)GlcNAc(b1-3)Gal(b1-4)GlcNAc(b1-2)Man(a1-6)]Man(b1-4)GlcNAc(b1-4)GlcNAc
# Procedure, shortened: as §1
# [8] = target: Gal(b1-3)GlcNAc(b1-3)Gal(b1-4)GlcNAc(b1-2)[Gal(b1-3)GlcNAc(b1-3)Gal(b1-4)GlcNAc(b1-6)]Man(a1-6)[Gal(b1-3)GlcNAc(b1-3)Gal(b1-4)GlcNAc(b1-2)Man(a1-3)]Man(b1-4)GlcNAc(b1-4)[Fuc(a1-6)]GlcNAc
# Procedure, shortened: as §1
# [9] = target: Gal(b1-3)GlcNAc(b1-3)Gal(b1-4)GlcNAc(b1-3)Gal(b1-4)GlcNAc(b1-2)[Gal(b1-3)GlcNAc(b1-3)Gal(b1-4)GlcNAc(b1-3)Gal(b1-4)GlcNAc(b1-6)]Man(a1-6)[Gal(b1-3)GlcNAc(b1-3)Gal(b1-4)GlcNAc(b1-3)Gal(b1-4)GlcNAc(b1-2)Man(a1-3)]Man(b1-4)GlcNAc(b1-4)[Fuc(a1-6)]GlcNAc
# Procedure, shortened: as §1
# [10] = target: Gal(b1-3)GlcNAc(b1-3)Gal(b1-4)GlcNAc(b1-6)[Gal(b1-3)GlcNAc(b1-3)]Gal(b1-4)Glc
# Procedure, shortened: as §1
# [11] = target: Gal(b1-3)GlcNAc(b1-3)Gal(b1-4)[Fuc(a1-3)]GlcNAc
# Procedure, shortened: as §1
# [12] = target: Gal(b1-3)GlcNAc(b1-3)Gal(b1-4)[Fuc(a1-3)]GlcNAc(b1-6)[Gal(b1-3)GlcNAc(b1-3)]Gal(b1-4)Glc
# Procedure, shortened: as §1
# [13] = target: Gal(b1-3)GlcNAc(b1-3)GalNAc
# Procedure, shortened: as §1
# [14] = target: Gal(b1-3)GlcNAc(b1-6)Gal(b1-4)GlcNAc
# Procedure, shortened: as §1
# [15] = target: Gal(b1-3)GlcNAc(b1-6)GalNAc
# Procedure, shortened: as §1
# [16] = target: Gal(b1-3)GlcNAc(b1-6)[Gal(b1-3)]GalNAc
# Procedure, shortened: as §1
# Gal(b1-3)GlcNAc6S = target: Gal(b1-3)GlcNAc6S
# Procedure, shortened: as §1
# [17] = target: Gal(b1-3)[Fuc(a1-4)]GlcNAc
# Procedure, shortened: as §1
# [18] = target: Gal(b1-3)[Fuc(a1-4)]GlcNAc(b1-2)Man
# Procedure, shortened: as §1
# [19] = target: Gal(b1-3)[Fuc(a1-4)]GlcNAc(b1-2)Man(a1-3)[Gal(b1-3)[Fuc(a1-4)]GlcNAc(b1-2)Man(a1-6)]Man(b1-4)GlcNAc(b1-4)[Fuc(a1-6)]GlcNAc
# Procedure, shortened: as §1
# [20] = target: Gal(b1-3)[Fuc(a1-4)]GlcNAc(b1-3)Gal(b1-3)[Fuc(a1-4)]GlcNAc
# Procedure, shortened: as §1
# [21] = target: Gal(b1-3)[Fuc(a1-4)]GlcNAc(b1-3)Gal(b1-4)[Fuc(a1-3)]GlcNAc
# Procedure, shortened: as §1
# [22] = target: Gal(b1-3)[Fuc(a1-4)]GlcNAc(b1-6)GalNAc
# Procedure, shortened: as §1
# [23] = target: Gal(b1-3)[GlcNAc(b1-6)]GalNAc
# Procedure, shortened: as §1
# [24] = target: Gal(b1-3)[Neu5Ac(a2-6)]GalNAc
# Procedure, shortened: as §1
# [25] = target: Gal(b1-3)[Neu5Ac(a2-6)]GlcNAc(b1-4)Gal(b1-4)Glc
# Procedure, shortened: as §1
# [26] = target: Gal(b1-3)[Neu5Ac(b2-6)]GalNAc
# Procedure, shortened: as §1
# Gal(b1-4)Gal = target: Gal(b1-4)Gal
# Procedure, shortened: as §1
# [27] = target: Gal(b1-4)GalNAc(a1-3)[Fuc(a1-2)]Gal(b1-4)GlcNAc
# Procedure, shortened: as §1
# [28] = target: Gal(b1-4)GalNAc(b1-3)[Fuc(a1-2)]Gal(b1-4)GlcNAc
# Procedure, shortened: as §1
# Gal(b1-4)Glc = target: Gal(b1-4)Glc
# Procedure, shortened: as §1
# Gal(b1-4)Glc6S = target: Gal(b1-4)Glc6S
# Procedure, shortened: as §1
# Gal(b1-4)GlcNAc = target: Gal(b1-4)GlcNAc
# Procedure, shortened: as §1
# [29] = target: Gal(b1-4)GlcNAc(a1-6)Gal(b1-4)GlcNAc
# Procedure, shortened: as §1
# Gal(b1-4)GlcNAc(b1-2)Man = target: Gal(b1-4)GlcNAc(b1-2)Man
# Procedure, shortened: as §1
# [30] = target: Gal(b1-4)GlcNAc(b1-2)Man(a1-3)Man(b1-4)GlcNAc(b1-4)GlcNAc
# Procedure, shortened: as §1
# [31] = target: Gal(b1-4)GlcNAc(b1-2)Man(a1-3)[Gal(b1-4)GlcNAc(b1-2)Man(a1-6)]Man(b1-4)GlcNAc(b1-4)GlcNAc
# Procedure, shortened: as §1
# [32] = target: Gal(b1-4)GlcNAc(b1-2)Man(a1-3)[Gal(b1-4)GlcNAc(b1-2)Man(a1-6)]Man(b1-4)GlcNAc(b1-4)[Fuc(a1-6)]GlcNAc
# Procedure, shortened: as §1
# [33] = target: Gal(b1-4)GlcNAc(b1-2)Man(a1-3)[Gal(b1-4)GlcNAc(b1-2)Man(a1-6)][Gal(b1-4)GlcNAc(b1-4)]Man(b1-4)GlcNAc(b1-4)[Fuc(a1-6)]GlcNAc
# Procedure, shortened: as §1
# [34] = target: Gal(b1-4)GlcNAc(b1-2)Man(a1-3)[Gal(b1-4)GlcNAc(b1-2)Man(a1-6)][GlcNAc(b1-4)]Man(b1-4)GlcNAc(b1-4)[Fuc(a1-6)]GlcNAc
# Procedure, shortened: as §1
# [35] = target: Gal(b1-4)GlcNAc(b1-2)Man(a1-3)[GlcNAc(b1-2)Man(a1-6)]Man(b1-4)GlcNAc(b1-4)GlcNAc
# Procedure, shortened: as §1
# [36] = target: Gal(b1-4)GlcNAc(b1-2)Man(a1-3)[GlcNAc(b1-4)][Gal(b1-4)GlcNAc(b1-2)Man(a1-6)]Man(b1-4)GlcNAc(b1-4)GlcNAc
# Procedure, shortened: as §1
# [37] = target: Gal(b1-4)GlcNAc(b1-2)Man(a1-3)[Man(a1-6)]Man(b1-4)GlcNAc(b1-4)GlcNAc
# Procedure, shortened: as §1
# [38] = target: Gal(b1-4)GlcNAc(b1-2)Man(a1-6)Man(b1-4)GlcNAc(b1-4)GlcNAc
# Procedure, shortened: as §1
# [39] = target: Gal(b1-4)GlcNAc(b1-2)Man(a1-6)[GlcNAc(b1-2)Man(a1-3)]Man(b1-4)GlcNAc(b1-4)GlcNAc
# Procedure, shortened: as §1
binder,measurement,setting,value
B1,glycan array binding signal (z-score),[1],0.25
same,glycan array binding signal (z-score),[2],1.66
same,glycan array binding signal (z-score),[3],-0.619
same,glycan array binding signal (z-score),[4],-0.705
same,glycan array binding signal (z-score),[5],-1.03
same,glycan array binding signal (z-score),[6],0.088
same,glycan array binding signal (z-score),[7],-1.15
same,glycan array binding signal (z-score),[8],1.36
same,glycan array binding signal (z-score),[9],-0.715
same,glycan array binding signal (z-score),[10],-0.418
same,glycan array binding signal (z-score),[11],-0.579
same,glycan array binding signal (z-score),[12],-0.657
same,glycan array binding signal (z-score),[13],-0.239
same,glycan array binding signal (z-score),[14],0.216
same,glycan array binding signal (z-score),[15],-0.335
same,glycan array binding signal (z-score),[16],-0.825
same,glycan array binding signal (z-score),Gal(b1-3)GlcNAc6S,-0.688
same,glycan array binding signal (z-score),[17],-0.549
same,glycan array binding signal (z-score),[18],-0.686
same,glycan array binding signal (z-score),[19],0.447
same,glycan array binding signal (z-score),[20],-0.396
same,glycan array binding signal (z-score),[21],0.749
same,glycan array binding signal (z-score),[22],-0.328
same,glycan array binding signal (z-score),[23],-0.425
same,glycan array binding signal (z-score),[24],0.066
same,glycan array binding signal (z-score),[25],-0.233
same,glycan array binding signal (z-score),[26],-0.419
same,glycan array binding signal (z-score),Gal(b1-4)Gal,1.58
same,glycan array binding signal (z-score),[27],-0.103
same,glycan array binding signal (z-score),[28],-0.549
same,glycan array binding signal (z-score),Gal(b1-4)Glc,-0.186
same,glycan array binding signal (z-score),Gal(b1-4)Glc6S,0.386
same,glycan array binding signal (z-score),Gal(b1-4)GlcNAc,-0.092
same,glycan array binding signal (z-score),[29],-0.134
same,glycan array binding signal (z-score),Gal(b1-4)GlcNAc(b1-2)Man,-0.527
same,glycan array binding signal (z-score),[30],0.511
same,glycan array binding signal (z-score),[31],0.274
same,glycan array binding signal (z-score),[32],1.18
same,glycan array binding signal (z-score),[33],-0.599
same,glycan array binding signal (z-score),[34],-0.461
same,glycan array binding signal (z-score),[35],-0.279
same,glycan array binding signal (z-score),[36],0.088
same,glycan array binding signal (z-score),[37],-0.747
same,glycan array binding signal (z-score),[38],-0.983
same,glycan array binding signal (z-score),[39],1.05

# Shown with tabs: entries from further up.
binder	measurement	setting	value
B1	glycan array binding signal (z-score)	[27]	-0.103
same	glycan array binding signal (z-score)	[28]	-0.549
same	glycan array binding signal (z-score)	Gal(b1-4)Glc	-0.186
same	glycan array binding signal (z-score)	Gal(b1-4)Glc6S	0.386
